Results deposited as PubChem BioAssay AID1259308 (NCATS, 2017).
Screen: 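Knock-downs that increase output of a recombinant reporter protein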 (primary screen). Cell system: human HEK293 embryonic kidney cells stably expressing firefly luciferase (HEK-CMV-Luc2-Hygro). Reagents: single siRNA against human genes, 0.8 pmol siRNA per well. Duration: 72 h. Measurement: 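Reporter luminescence and viable-cell signal on separate replicate plates, given as percent of non-targeting control and median/MAD z-scores, plus per-cell luciferase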. Reading the numbers: total luciferase, z-score and total luciferase, % of control: higher = more reporter protein produced; luciferase per cell, z-score: higher = more reporter output per viable cell; viable cells, % of control: higher = more viable cells. Active means: 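An siRNA counts as active if its total luciferase robust z-score exceeds 3; genes with two or more such siRNAs out of three were retested with fresh siRNAs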. Meaning of the calls: active = raised luciferase; inactive = no rise.
Here is a random part of about 59,000 reagents. About 1,510 of all reagents (2.6%) count as active. 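Calls use total luciferase alone and ignore viability, so some active siRNAs may act by altering cell number.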 Unmarked entries are inactive. Reagents against one gene are numbered here.

| Gene | reagent no. | total luciferase, z-score | total luciferase, % of control | luciferase per cell, z-score | viable cells, % of control |
| --- | --- | --- | --- | --- | --- |
| OXTR (oxytocin receptor) | 1 | 3.51 (active) | 152 | 2.8 | 81.2 |
| OXTR (oxytocin receptor) | 2 | -0.814 | 65.7 | -0.747 | 89.4 |
| OXTR (oxytocin receptor) | 3 | -0.332 | 75.3 | -0.316 | 91.4 |
| PRMT2IP (PRMT2 interacting protein) | 1 | 1.6 | 114 | 0.689 | 106 |
| PRMT2IP (PRMT2 interacting protein) | 2 | -1.65 | 49 | -1.17 | 74.5 |
| PRMT2IP (PRMT2 interacting protein) | 3 | 1.51 | 112 | 2.21 | 70 |
| CSAG2 (CSAG family member 2) | 1 | -0.782 | 66.3 | -0.00309 | 74.2 |
| CSAG2 (CSAG family member 2) | 2 | -0.353 | 74.9 | -0.588 | 97.7 |
| CSAG2 (CSAG family member 2) | 3 | -0.716 | 67.6 | 1.13 | 56.2 |
| GYG1 (glycogenin 1) | 1 | 0.696 | 95.7 | 1.53 | 71.4 |
| GYG1 (glycogenin 1) | 2 | -0.612 | 69.7 | -0.481 | 88.4 |
| GYG1 (glycogenin 1) | 3 | 4.09 (active) | 163 | 2.46 | 95.4 |
| MUC5AC (mucin 5AC, oligomeric mucus/gel-forming) | 1 | 1.56 | 113 | 0.783 | 103 |
| MUC5AC (mucin 5AC, oligomeric mucus/gel-forming) | 2 | 0.72 | 96.2 | 1.42 | 73.9 |
| MUC5AC (mucin 5AC, oligomeric mucus/gel-forming) | 3 | -0.971 | 62.6 | -0.791 | 86.1 |
| ELOCP3 (elongin C pseudogene 3) | 1 | 1.47 | 111 | 1.85 | 76.3 |
| ELOCP3 (elongin C pseudogene 3) | 2 | 0.821 | 98.2 | 2.62 | 55 |
| ELOCP3 (elongin C pseudogene 3) | 3 | 0.76 | 97 | 1.14 | 80.2 |
| ST6GALNAC6 (ST6 N-acetylgalactosaminide alpha-2,6-sialyltransferase 6) | 1 | -0.375 | 74.4 | -0.679 | 99.4 |
| ST6GALNAC6 (ST6 N-acetylgalactosaminide alpha-2,6-sialyltransferase 6) | 2 | 1.8 | 118 | 2.06 | 76.5 |
| ST6GALNAC6 (ST6 N-acetylgalactosaminide alpha-2,6-sialyltransferase 6) | 3 | 0.361 | 89.1 | -0.0222 | 100 |
| LOC340089 (POM121 membrane glycoprotein (rat) pseudogene) | 1 | -1.22 | 57.6 | -0.688 | 77.2 |
| LOC340089 (POM121 membrane glycoprotein (rat) pseudogene) | 2 | 0.21 | 86.1 | 0.868 | 76.5 |
| LOC340089 (POM121 membrane glycoprotein (rat) pseudogene) | 3 | -0.252 | 76.9 | -0.767 | 105 |
| NFIA-AS1 (NFIA antisense RNA 1) | 1 | 0.504 | 91.9 | 1.55 | 68.3 |
| NFIA-AS1 (NFIA antisense RNA 1) | 2 | 4.06 (active) | 163 | 4.07 | 62.3 |
| NFIA-AS1 (NFIA antisense RNA 1) | 3 | 0.329 | 88.4 | 0.848 | 79.1 |
| HTR3D (5-hydroxytryptamine receptor 3D) | 1 | -0.416 | 73.6 | 0.242 | 77.2 |
| HTR3D (5-hydroxytryptamine receptor 3D) | 2 | 1.07 | 103 | 1.04 | 87.6 |
| HTR3D (5-hydroxytryptamine receptor 3D) | 3 | -0.344 | 75 | -0.391 | 92.9 |
| RSRC1 (arginine and serine rich coiled-coil 1) | 1 | 0.171 | 85.3 | -0.000181 | 95.3 |
| RSRC1 (arginine and serine rich coiled-coil 1) | 2 | -1.21 | 57.9 | -0.807 | 80 |
| RSRC1 (arginine and serine rich coiled-coil 1) | 3 | 0.017 | 82.2 | 0.124 | 88.9 |

Continued (5 carried over from the part before).
| Gene | reagent no. | total luciferase, z-score | total luciferase, % of control | luciferase per cell, z-score | viable cells, % of control |
| --- | --- | --- | --- | --- | --- |
| HTR3D (5-hydroxytryptamine receptor 3D) | 2 | 1.07 | 103 | 1.04 | 87.6 |
| HTR3D (5-hydroxytryptamine receptor 3D) | 3 | -0.344 | 75 | -0.391 | 92.9 |
| RSRC1 (arginine and serine rich coiled-coil 1) | 1 | 0.171 | 85.3 | -0.000181 | 95.3 |
| RSRC1 (arginine and serine rich coiled-coil 1) | 2 | -1.21 | 57.9 | -0.807 | 80 |
| RSRC1 (arginine and serine rich coiled-coil 1) | 3 | 0.017 | 82.2 | 0.124 | 88.9 |
| SMARCA1 (SNF2 related chromatin remodeling ATPase 1) | 1 | 0.187 | 85.6 | 0.692 | 79.7 |
| SMARCA1 (SNF2 related chromatin remodeling ATPase 1) | 2 | -0.635 | 69.2 | -0.9 | 98.1 |
| SMARCA1 (SNF2 related chromatin remodeling ATPase 1) | 3 | 1.25 | 107 | 0.414 | 107 |
| POLR1H (RNA polymerase I subunit H) | 1 | 0.787 | 97.5 | 0.23 | 103 |
| POLR1H (RNA polymerase I subunit H) | 2 | -0.172 | 78.5 | -0.696 | 105 |
| POLR1H (RNA polymerase I subunit H) | 3 | -0.592 | 70.1 | -1.17 | 107 |
| ENDOV (endonuclease V) | 1 | -0.746 | 67 | -0.737 | 91 |
| ENDOV (endonuclease V) | 2 | -0.236 | 77.2 | -0.536 | 99.3 |
| ENDOV (endonuclease V) | 3 | 1.38 | 109 | 0.852 | 97.6 |
| USP30 (ubiquitin specific peptidase 30) | 1 | 1.01 | 102 | 1.78 | 71.3 |
| USP30 (ubiquitin specific peptidase 30) | 2 | -0.133 | 79.2 | -0.413 | 98.7 |
| USP30 (ubiquitin specific peptidase 30) | 3 | 4.09 (active) | 163 | 3.1 | 80.6 |
| TRA2B (transformer 2 beta homolog) | 1 | 1.94 | 120 | 0.675 | 113 |
| TRA2B (transformer 2 beta homolog) | 2 | 0.158 | 85 | -0.253 | 102 |
| TRA2B (transformer 2 beta homolog) | 3 | 3.65 (active) | 154 | 2.81 | 82.3 |
| AGL (amylo-alpha-1,6-glucosidase and 4-alpha-glucanotransferase) | 1 | -0.987 | 62.3 | -1.02 | 91 |
| AGL (amylo-alpha-1,6-glucosidase and 4-alpha-glucanotransferase) | 2 | -0.409 | 73.8 | -0.775 | 101 |
| AGL (amylo-alpha-1,6-glucosidase and 4-alpha-glucanotransferase) | 3 | 0.209 | 86 | 0.545 | 83.3 |
| ZNF577 (zinc finger protein 577) | 1 | 0.704 | 95.9 | 0.539 | 93 |
| ZNF577 (zinc finger protein 577) | 2 | 2.33 | 128 | 2.01 | 84.5 |
| ZNF577 (zinc finger protein 577) | 3 | 2.27 | 127 | 1.28 | 101 |
| OSBPL9 (oxysterol binding protein like 9) | 1 | 0.51 | 92 | 0.0853 | 101 |
| OSBPL9 (oxysterol binding protein like 9) | 2 | 1.07 | 103 | 0.639 | 97.4 |
| OSBPL9 (oxysterol binding protein like 9) | 3 | -0.858 | 64.8 | -0.503 | 82.7 |
